Measurements as given in US10274499B2, “SH2 domain variants” (THE UNIVERSITY OF WESTERN ONTARIO, priority 2012, dated 2019).

System: A549 cells
Test: subcellular localization of GFP-fused SH2 domains in live cells
Type: cell-based
Details: 16 to 20 hours after transfection

Substance: wild-type Src SH2 domain: human Src SH2 domain between Asp144 and Lys252; SEQ ID NO:18 [reference compound]
- subcellular localization of GFP fusion: distributed more or less evenly in the cell with a slight enrichment in the nuclear region
